Reference: paper doi:10.1101/2025.03.19.643735
Like-named read-outs stand apart in the source and are kept apart here. These are yes or no findings as the source states them, for the method shown. For some assays here: Binding seen in cells or lysates may run through a third protein. Some results given as binding are weak or reduced against the parent protein; the word gives no strength. For some assays here: Where a sequence is shown, tags or fusion partners need not be part of it. Each block holds one molecule with its values, some of them ahead of it.

By UniProt entry, the sequences of proteins in these tests, tags left out. Where a name states a change or a piece, a line headed by the entry shows the natural chain unless it says otherwise.
UniProt P35637: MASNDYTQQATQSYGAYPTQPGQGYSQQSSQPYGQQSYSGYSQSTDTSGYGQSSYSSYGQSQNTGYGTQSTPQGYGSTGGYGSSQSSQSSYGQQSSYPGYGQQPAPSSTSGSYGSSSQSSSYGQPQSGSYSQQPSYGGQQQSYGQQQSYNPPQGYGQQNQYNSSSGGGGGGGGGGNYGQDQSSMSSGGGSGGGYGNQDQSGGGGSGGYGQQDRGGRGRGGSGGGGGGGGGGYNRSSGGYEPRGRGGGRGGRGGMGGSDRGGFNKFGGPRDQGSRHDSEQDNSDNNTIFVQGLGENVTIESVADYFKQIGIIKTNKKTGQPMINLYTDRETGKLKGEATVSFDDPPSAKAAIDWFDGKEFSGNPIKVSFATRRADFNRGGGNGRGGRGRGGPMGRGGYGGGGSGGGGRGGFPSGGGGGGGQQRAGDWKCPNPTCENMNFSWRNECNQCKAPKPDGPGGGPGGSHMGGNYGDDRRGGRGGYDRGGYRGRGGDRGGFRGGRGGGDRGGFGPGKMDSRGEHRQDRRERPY

Experiments:
[1] = target: T1, Sbp1-mScarlet (Saccharomyces cerevisiae) (UniProt P10080); test: co-IP
T1 sequence: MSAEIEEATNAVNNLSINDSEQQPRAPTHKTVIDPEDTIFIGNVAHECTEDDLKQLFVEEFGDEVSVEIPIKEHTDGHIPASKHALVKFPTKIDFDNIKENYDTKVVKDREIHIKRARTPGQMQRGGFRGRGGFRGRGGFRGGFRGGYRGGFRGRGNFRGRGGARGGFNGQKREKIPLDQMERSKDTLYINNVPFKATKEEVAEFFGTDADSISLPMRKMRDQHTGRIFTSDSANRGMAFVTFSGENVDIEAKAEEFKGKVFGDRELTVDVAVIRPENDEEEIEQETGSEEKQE

MBP-FUS-eGFP [2] = target: MBP-FUS-eGFP (UniProt P35637); test: pull-down
MBP-FUS-Flag-His = MBP-FUS-Flag-His (UniProt P35637); test: pull-down
[3] = target: FUS, cleaved from MBP with TeV protease (FUS-Flag as bait and FUS-eGFP as prey) (UniProt P35637); test: pull-down
MBP-FUS-eGFP [4] = target: MBP-FUS-eGFP (UniProt P35637); test: pull-down; remark: listed apart in the source

- binding [1]: binds
- binding (MBP-FUS-eGFP [2]): binds
Molecule: eGFP-FUS-P525L (from UniProt P35637 1-526)

- binding (MBP-FUS-Flag-His): binds
- binding [3]: binds
B1: His-Sbp1-GFP (protein, UniProt P10080 1-294)
chain: MSAEIEEATNAVNNLSINDSEQQPRAPTHKTVIDPEDTIFIGNVAHECTEDDLKQLFVEEFGDEVSVEIPIKEHTDGHIPASKHALVKFPTKIDFDNIKENYDTKVVKDREIHIKRARTPGQMQRGGFRGRGGFRGRGGFRGGFRGGYRGGFRGRGNFRGRGGARGGFNGQKREKIPLDQMERSKDTLYINNVPFKATKEEVAEFFGTDADSISLPMRKMRDQHTGRIFTSDSANRGMAFVTFSGENVDIEAKAEEFKGKVFGDRELTVDVAVIRPENDEEEIEQETGSEEKQE

- binding (MBP-FUS-eGFP [4]): binds
B2: recombinant Sbp1 (protein, UniProt P10080 1-294)
chain: MSAEIEEATNAVNNLSINDSEQQPRAPTHKTVIDPEDTIFIGNVAHECTEDDLKQLFVEEFGDEVSVEIPIKEHTDGHIPASKHALVKFPTKIDFDNIKENYDTKVVKDREIHIKRARTPGQMQRGGFRGRGGFRGRGGFRGGFRGGYRGGFRGRGNFRGRGGARGGFNGQKREKIPLDQMERSKDTLYINNVPFKATKEEVAEFFGTDADSISLPMRKMRDQHTGRIFTSDSANRGMAFVTFSGENVDIEAKAEEFKGKVFGDRELTVDVAVIRPENDEEEIEQETGSEEKQE
